Values quoted from earlier work as cited in patent US9957236B2, “Selective inhibitors interfering with fibroblast growth factor receptor and FRS2 interaction for the prevention and treatment of cancer and other diseases” (LIMITED LIABILITY COMPANY “RUSSIAN PHARMACEUTICAL …, priority 2014, dated 2018).
At least one compound was matched to its structure with a doubt left.

Columns and labels:
FGFR = conditions: Gozgit et al. 2012; read-out: IC50 of phosphorylation of FGFR; cited from earlier work
FRS2 = conditions: Gozgit et al. 2012; read-out: IC50 of phosphorylation of FRS2; cited from earlier work

For `Cc1ccc(C(=O)Nc2ccc(CN3CCN(C)CC3)c(C(F)(F)F)c2)cc1C#Cc1cnc2cccnn12` [ponatibib], the IC50 (FGFR) is listed as 3 to 18 nM and the IC50 (FRS2) is listed as 33 to 40 nM.
